PubChem BioAssay AID1053208 – Peter MacCallum Cancer Centre – 2014
Screen: 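Genes whose silencing cuts survival of bone tumour cells only with doxorubicin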 (primary screen). Cells: mouse osteosarcoma cells, early-passage culture from an engineered mouse model of fibroblastic bone tumour. Reagent: siRNA pool against mouse genes, 40 nM. Time to read-out: about 120 h (48 h before drug, then 72 h with drug). Challenge: doxorubicin 100 nM for 72 h, roughly 30-40% inhibitory dose. Detection: 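Luminescent ATP signal taken as viability with or without 100 nM doxorubicin for 72 h; mean of two wells set against non-targeting siRNA and turned into robust z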. Scale: viability z-score with doxorubicin: higher = more viable cells under doxorubicin; viability z-score without drug: higher = more viable cells with knock-down alone. Call rule: 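Called active if knock-down leaves viability unchanged without drug (z within -2 to 2) but lowers it with doxorubicin (z at or under -2)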.
In all, the deposit lists about 17,000 reagents; shown is a random part of them. 788 of all reagents (4.7%) were called active. 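Calls rest on z-score classes alone; an extra cut-off of viability at most 70% of control was not applied to them.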 Some reagents were tested in more than one well and are listed for each. Further read-outs or replicates are left out here.

target | combined z-score class | viability z-score with doxorubicin | viability z-score without drug | Outcome
Lratd1 | no change with or without drug | -1.24 | 0.84 | inactive
Papolg | no change with or without drug | -0.45 | 0 | inactive
Psip1 | no change with or without drug | 1.57 | 0.84 | inactive
Rps7 | low cell count with and without drug | -7.31 | -5.9 | inactive
Cd209d | no change with or without drug | 0.45 | 1.85 | inactive
Or2ak7 | no change with or without drug | -1.12 | -1.69 | inactive
Pcsk7 | no change with or without drug | -0.22 | 0.51 | inactive
Wipf1 | low cell count with doxorubicin only | -2.14 | -0.51 | active
Rab32 | no change with or without drug | 1.12 | 0.84 | inactive
D1Pas1 | no change with or without drug | -1.57 | 1.52 | inactive
Klra15 | no change with or without drug | 0.45 | 1.18 | inactive
Or51b17 | no change with or without drug | 0.79 | 1.01 | inactive
Wnt3a | no change with or without drug | 0.22 | 1.35 | inactive
Slc26a11 | no change with or without drug | 0.34 | 1.18 | inactive
Cox16 | no change with or without drug | -1.46 | -0.51 | inactive
Mef2b | no change with or without drug | -0.34 | 0.17 | inactive
H3f3a | no change with or without drug | 0.9 | 0.84 | inactive
Blvra | no change with or without drug | 0 | 0.51 | inactive
Stk26 | no change with or without drug | 0 | -1.18 | inactive
Stk26 | no change with or without drug | -0.67 | 1.18 | inactive
Ptk2b | no change with or without drug | -0.67 | -1.18 | inactive
Fam3d | no change with or without drug | -1.46 | -0.34 | inactive
Ilk | no change with or without drug | -1.35 | -0.67 | inactive
Tut1 | no change with or without drug | -0.11 | 1.18 | inactive
Tubg1 | no change with or without drug | -0.22 | -1.52 | inactive
Baz1a | no change with or without drug | 0.56 | 0.17 | inactive
Cd209b | high cell count with doxorubicin only | 2.25 | 0.67 | inactive
Zdhhc13 | no change with or without drug | 0.67 | -0.17 | inactive
Pgd | low cell count with doxorubicin only | -2.7 | -1.85 | active
Ramac | no change with or without drug | 1.69 | 0.84 | inactive
Nkx2-6 | low cell count with and without drug | -2.47 | -2.19 | inactive
Morc4 | no change with or without drug | -0.22 | -0.17 | inactive
BC016548 | no change with or without drug | 1.57 | 1.18 | inactive
Klhl17 | no change with or without drug | 0.67 | -0.17 | inactive
Snd1 | no change with or without drug | 0.22 | -0.84 | inactive
Slc7a6 | no change with or without drug | 0 | 1.52 | inactive
Fbn2 | no change with or without drug | 0.67 | 1.18 | inactive
D630039A03Rik | high cell count without drug only | 0.11 | 2.19 | inactive
Stox2 | high cell count with doxorubicin only | 2.02 | 1.01 | inactive
Pik3cg | no change with or without drug | -0.22 | 0.17 | inactive
Pik3cg | no change with or without drug | -0.45 | 0.84 | inactive
Mdh1 | high cell count with and without drug | 3.48 | 2.02 | inactive
Ammecr1l | no change with or without drug | -1.69 | 1.01 | inactive
Ndufa9 | no change with or without drug | 0.22 | -1.85 | inactive
Xrcc2 | no change with or without drug | -0.9 | -0.51 | inactive
Mettl21e | no change with or without drug | 0.34 | -0.34 | inactive
Pecr | no change with or without drug | 0.45 | 0.84 | inactive
Or2t48 | no change with or without drug | 0 | -0.84 | inactive
5330438I03Rik | no change with or without drug | 1.8 | 1.18 | inactive
Itgal | no change with or without drug | -1.57 | -0.17 | inactive
Homez | no change with or without drug | 0.45 | 0 | inactive
Abt1 | no change with or without drug | 1.24 | 1.01 | inactive
Gzme | no change with or without drug | 0.56 | 0.84 | inactive
Adam10 | low cell count with doxorubicin only | -2.25 | 0.17 | active
Tgm3 | no change with or without drug | 1.46 | 1.52 | inactive
Etfrf1 | high cell count without drug only | -1.35 | 3.71 | inactive
Ska3 | no change with or without drug | -1.12 | 0.34 | inactive
Fem1al | no change with or without drug | 0.67 | 1.52 | inactive
Epb41l4b | no change with or without drug | -0.9 | -1.01 | inactive
Hdac10 | no change with or without drug | 0.34 | -0.17 | inactive
Birc6 | no change with or without drug | 0.9 | -1.18 | inactive
Zeb1 | no change with or without drug | -0.34 | 0.84 | inactive
Ces4a | no change with or without drug | 1.35 | 1.01 | inactive

Called active, among the entries above:
target | combined z-score class | viability z-score with doxorubicin | viability z-score without drug | Outcome
Wipf1 | low cell count with doxorubicin only | -2.14 | -0.51 | active
Pgd | low cell count with doxorubicin only | -2.7 | -1.85 | active
Adam10 | low cell count with doxorubicin only | -2.25 | 0.17 | active
